Results from PubChem BioAssay (EPA / NIEHS).
Values joined by “and” are separate entries in the source; they are usually repeats but may differ in a detail not shown here. Identical values can stand only once. The inconclusive results got no clear call from the source; some entries with a clear call stand among them for comparison. For part of these data: A potency beside an inconclusive call is a rough fit, not a confirmed value. Active and inactive are the calls of the source. How the source made its calls: active means hit-call score of the fitted dose curve at least 0.9, where 1 is the maximum; inconclusive means response in the unintended direction; inactive means score below 0.9.

By UniProt entry, the sequences of proteins in these tests, tags left out. Where a name states a change or a piece, a line headed by the entry shows the natural chain unless it says otherwise.
UniProt P10276, whole entry, looked up: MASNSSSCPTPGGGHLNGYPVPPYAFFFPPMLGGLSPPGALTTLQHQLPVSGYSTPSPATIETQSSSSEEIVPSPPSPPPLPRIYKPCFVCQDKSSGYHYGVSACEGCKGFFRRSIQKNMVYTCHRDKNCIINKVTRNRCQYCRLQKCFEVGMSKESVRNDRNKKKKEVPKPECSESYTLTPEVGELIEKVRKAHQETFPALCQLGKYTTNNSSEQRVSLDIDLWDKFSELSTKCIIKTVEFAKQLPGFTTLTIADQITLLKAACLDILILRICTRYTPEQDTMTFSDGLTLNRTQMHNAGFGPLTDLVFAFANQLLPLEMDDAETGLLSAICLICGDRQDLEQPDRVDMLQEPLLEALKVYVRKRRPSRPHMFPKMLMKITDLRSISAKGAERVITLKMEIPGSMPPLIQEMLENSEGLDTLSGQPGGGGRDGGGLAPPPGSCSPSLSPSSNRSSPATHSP
UniProt P13631, whole entry, looked up: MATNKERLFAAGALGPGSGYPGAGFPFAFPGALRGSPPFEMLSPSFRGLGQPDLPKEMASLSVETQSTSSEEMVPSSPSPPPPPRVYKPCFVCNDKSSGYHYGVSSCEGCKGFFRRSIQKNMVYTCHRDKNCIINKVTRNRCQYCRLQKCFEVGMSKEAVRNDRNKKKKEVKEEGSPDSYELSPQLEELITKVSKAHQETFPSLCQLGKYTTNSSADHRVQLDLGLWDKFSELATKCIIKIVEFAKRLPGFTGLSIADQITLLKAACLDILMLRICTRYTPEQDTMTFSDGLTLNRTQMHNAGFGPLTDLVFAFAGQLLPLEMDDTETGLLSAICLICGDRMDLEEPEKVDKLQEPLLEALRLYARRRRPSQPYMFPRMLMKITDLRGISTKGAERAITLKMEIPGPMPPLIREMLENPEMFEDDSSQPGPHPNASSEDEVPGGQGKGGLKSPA
UniProt Q92753: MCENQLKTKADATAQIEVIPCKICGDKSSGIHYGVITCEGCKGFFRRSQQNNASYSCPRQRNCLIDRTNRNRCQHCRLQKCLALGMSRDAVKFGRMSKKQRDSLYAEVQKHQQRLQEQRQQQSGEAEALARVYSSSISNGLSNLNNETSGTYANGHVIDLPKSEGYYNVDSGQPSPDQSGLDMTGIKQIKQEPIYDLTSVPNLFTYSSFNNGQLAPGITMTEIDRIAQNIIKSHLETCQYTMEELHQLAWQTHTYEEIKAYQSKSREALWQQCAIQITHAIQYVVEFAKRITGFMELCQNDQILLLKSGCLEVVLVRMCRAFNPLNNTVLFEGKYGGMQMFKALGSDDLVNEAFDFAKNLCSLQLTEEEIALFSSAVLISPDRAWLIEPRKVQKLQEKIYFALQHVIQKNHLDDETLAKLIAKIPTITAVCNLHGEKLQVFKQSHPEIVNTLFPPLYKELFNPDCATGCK
UniProt P51449: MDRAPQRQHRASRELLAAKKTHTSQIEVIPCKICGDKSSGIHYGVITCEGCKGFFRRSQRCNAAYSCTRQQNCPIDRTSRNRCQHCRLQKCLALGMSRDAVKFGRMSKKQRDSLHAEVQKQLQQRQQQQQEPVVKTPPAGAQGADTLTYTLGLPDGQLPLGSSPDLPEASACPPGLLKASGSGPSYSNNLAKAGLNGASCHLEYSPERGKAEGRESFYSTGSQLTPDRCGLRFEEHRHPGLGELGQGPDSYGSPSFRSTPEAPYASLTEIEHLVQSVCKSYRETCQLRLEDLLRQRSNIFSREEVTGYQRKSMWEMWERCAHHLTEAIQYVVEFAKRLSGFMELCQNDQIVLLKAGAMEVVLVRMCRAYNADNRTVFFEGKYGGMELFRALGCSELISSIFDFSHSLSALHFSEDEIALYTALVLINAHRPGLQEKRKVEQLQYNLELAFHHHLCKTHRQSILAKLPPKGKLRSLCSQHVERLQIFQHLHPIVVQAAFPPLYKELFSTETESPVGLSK
UniProt P19793: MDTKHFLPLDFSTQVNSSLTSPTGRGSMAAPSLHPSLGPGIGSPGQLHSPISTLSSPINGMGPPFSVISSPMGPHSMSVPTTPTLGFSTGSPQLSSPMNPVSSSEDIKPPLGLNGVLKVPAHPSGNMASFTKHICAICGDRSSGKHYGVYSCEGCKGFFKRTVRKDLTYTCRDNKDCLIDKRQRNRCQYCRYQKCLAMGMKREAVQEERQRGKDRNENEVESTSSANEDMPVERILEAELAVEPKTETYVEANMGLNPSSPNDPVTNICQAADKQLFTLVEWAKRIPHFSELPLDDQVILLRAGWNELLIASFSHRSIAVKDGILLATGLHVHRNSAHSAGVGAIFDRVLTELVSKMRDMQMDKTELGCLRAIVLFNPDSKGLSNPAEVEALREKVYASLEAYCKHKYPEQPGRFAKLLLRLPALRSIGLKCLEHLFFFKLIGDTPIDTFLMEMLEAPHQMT
UniProt P28702: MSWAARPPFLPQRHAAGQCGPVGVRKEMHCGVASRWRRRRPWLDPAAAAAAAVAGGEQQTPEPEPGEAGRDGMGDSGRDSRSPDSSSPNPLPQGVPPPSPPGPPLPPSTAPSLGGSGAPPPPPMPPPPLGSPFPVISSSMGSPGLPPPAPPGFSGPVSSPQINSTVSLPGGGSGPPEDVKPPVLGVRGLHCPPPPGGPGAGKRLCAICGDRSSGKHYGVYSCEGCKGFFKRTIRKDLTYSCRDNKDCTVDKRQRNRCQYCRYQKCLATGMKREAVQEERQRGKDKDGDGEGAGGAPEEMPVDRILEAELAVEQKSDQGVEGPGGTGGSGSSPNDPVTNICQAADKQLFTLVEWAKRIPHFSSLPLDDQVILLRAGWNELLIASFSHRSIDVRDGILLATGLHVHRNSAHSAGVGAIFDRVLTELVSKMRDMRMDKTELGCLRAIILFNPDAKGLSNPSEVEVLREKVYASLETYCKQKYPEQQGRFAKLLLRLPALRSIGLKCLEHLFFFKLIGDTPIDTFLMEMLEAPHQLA
UniProt P10827: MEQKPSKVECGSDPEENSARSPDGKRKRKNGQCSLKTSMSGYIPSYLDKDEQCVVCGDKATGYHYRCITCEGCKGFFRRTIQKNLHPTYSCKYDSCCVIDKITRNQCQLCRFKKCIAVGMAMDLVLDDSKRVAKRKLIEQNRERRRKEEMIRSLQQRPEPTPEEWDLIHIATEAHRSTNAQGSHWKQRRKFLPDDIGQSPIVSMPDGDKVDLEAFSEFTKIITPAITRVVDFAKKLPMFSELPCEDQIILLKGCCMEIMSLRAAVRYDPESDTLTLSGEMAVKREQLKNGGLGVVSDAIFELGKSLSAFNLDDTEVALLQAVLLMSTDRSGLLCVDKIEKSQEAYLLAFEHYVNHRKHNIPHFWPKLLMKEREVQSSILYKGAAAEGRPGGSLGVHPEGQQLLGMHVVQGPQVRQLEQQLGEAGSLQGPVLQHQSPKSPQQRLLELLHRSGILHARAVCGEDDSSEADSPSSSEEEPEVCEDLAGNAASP
UniProt P11473: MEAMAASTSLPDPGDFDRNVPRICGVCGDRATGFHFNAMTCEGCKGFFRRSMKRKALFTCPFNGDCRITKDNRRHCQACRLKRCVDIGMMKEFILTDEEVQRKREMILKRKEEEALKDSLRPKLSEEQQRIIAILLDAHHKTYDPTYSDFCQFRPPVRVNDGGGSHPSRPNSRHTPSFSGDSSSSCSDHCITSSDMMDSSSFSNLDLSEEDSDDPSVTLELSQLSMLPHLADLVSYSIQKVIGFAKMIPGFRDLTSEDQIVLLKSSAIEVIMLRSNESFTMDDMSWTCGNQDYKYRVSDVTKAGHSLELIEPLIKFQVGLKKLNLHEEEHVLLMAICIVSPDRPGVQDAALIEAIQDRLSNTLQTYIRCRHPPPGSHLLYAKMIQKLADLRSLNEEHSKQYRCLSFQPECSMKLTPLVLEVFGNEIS
UniProt P04798: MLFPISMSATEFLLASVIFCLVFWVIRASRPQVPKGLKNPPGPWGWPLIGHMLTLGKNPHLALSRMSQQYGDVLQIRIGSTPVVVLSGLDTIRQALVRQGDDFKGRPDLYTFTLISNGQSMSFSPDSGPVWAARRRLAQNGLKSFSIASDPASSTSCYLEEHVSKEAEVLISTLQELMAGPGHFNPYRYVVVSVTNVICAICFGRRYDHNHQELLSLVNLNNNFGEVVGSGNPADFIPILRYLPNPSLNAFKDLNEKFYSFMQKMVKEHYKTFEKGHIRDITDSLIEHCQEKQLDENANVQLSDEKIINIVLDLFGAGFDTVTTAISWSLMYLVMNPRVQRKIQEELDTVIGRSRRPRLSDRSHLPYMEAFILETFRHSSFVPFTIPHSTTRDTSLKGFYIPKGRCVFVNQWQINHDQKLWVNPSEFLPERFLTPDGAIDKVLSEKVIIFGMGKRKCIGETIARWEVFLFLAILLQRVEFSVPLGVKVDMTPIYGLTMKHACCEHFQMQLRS
UniProt P08684, whole entry, looked up: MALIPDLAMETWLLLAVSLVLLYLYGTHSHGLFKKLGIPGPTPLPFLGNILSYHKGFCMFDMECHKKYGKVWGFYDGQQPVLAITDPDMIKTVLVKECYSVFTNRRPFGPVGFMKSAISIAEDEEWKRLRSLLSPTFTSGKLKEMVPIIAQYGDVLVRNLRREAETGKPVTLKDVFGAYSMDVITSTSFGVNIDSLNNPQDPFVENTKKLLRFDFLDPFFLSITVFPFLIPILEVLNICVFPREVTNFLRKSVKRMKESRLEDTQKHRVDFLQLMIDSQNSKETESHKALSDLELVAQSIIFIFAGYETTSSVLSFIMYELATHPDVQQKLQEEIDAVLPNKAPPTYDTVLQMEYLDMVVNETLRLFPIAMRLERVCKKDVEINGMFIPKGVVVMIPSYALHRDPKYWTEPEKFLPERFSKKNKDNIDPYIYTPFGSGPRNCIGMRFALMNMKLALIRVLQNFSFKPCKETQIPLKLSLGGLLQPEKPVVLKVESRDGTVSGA
UniProt P11509: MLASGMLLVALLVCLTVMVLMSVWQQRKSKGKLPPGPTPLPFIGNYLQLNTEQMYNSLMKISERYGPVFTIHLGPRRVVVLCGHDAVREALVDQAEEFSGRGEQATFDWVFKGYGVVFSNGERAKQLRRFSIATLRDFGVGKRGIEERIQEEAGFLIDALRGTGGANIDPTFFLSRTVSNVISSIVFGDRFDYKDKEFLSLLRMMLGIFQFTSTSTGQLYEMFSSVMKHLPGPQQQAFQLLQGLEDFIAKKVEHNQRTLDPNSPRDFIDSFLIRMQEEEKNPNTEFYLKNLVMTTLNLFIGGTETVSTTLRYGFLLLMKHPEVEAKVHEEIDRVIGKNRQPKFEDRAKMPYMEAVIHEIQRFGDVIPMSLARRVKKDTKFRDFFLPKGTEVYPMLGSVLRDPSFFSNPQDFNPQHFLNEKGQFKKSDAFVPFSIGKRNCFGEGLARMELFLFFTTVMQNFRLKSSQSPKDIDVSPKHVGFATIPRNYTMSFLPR

Columns and labels:
[1] = molecular target: Retinoic acid receptor alpha (Homo sapiens) (UniProt P10276); assay: ATG_RARa_TRANS: Attagene TRANS-FACTORIAL HepG2 Assay for human Retinoic Acid Receptor alpha (RARa) (AID 2283005);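 on AC50: potency for increased reporter signal meaning RARa activation over DMSO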
Method in brief: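 Reporter transcripts, measured by RT-PCR with fluorescent labeling and capillary electrophoresis after 24 h dosing, reflect activity of an exogenous human RARa–GAL4 fusion in transiently transfected HepG2. Fitted for increase relative to DMSO.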

[2] = molecular target: human Retinoic Acid Receptor gamma (RARg), RARG (gene 5916) (UniProt P13631); assay: ATG_RARg_TRANS: Attagene TRANS-FACTORIAL HepG2 Assay for human Retinoic Acid Receptor gamma (RARg) (AID 2283009);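 on AC50: AC50 is for reporter induction above DMSO meaning RARg activation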
Method in brief: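 HepG2, RARg-GAL4 TRANS system, 24 h exposure; reporter mRNA by RT-PCR + CE fluorescence; increase over DMSO.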

[3] = molecular target: human RAR-related Orphan Receptor beta (RORb), RORB (gene 6096) (UniProt Q92753); assay: ATG_RORb_TRANS: Attagene TRANS-FACTORIAL HepG2 Assay for human RAR-related Orphan Receptor beta (RORb) (AID 2283010);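 on AC50: potency for increased reporter mRNA meaning activation of RORb-Gal4 chimera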
Method in brief: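 In this TRANS-format test, human HepG2 cells express chimeric NR-Gal4 fusion proteins driving GAL4-UAS reporters. After 24 h dosing, reporter transcripts are measured by fluorescent RT-PCR/capillary electrophoresis, with DMSO as negative control.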

[4] = molecular target: human RAR-related Orphan Receptor gamma (RORg), RORC (gene 6097) (UniProt P51449); assay: ATG_RORg_TRANS: Attagene TRANS-FACTORIAL HepG2 Assay for human RAR-related Orphan Receptor gamma (RORg) (AID 2283011);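 on AC50: potency for induction of reporter transcripts above DMSO so activators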
Method in brief: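 HepG2 cells transiently transfected with GAL4-UAS reporter units and chimeric RORg-Gal4 construct; after 24 h chemical exposure, reporter mRNA measured by RT-PCR with fluorescent capillary electrophoresis, gain of signal fitted against DMSO.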

[5] = molecular target: Retinoic acid receptor RXR-alpha (Homo sapiens) (UniProt P19793); assay: ATG_RXRa_TRANS: Attagene TRANS-FACTORIAL HepG2 Assay for human Retinoid X Receptor alpha (RXRa) (AID 2283012)
Method in brief: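 Cells (HepG2) carried transiently transfected GAL4-responsive reporter units. Following a 24 h chemical incubation, reporter mRNA induction was read via RT-PCR fragment analysis; DMSO served as negative control and baseline.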

[6] = molecular target: human Retinoid X Receptor beta (RXRb), RXRB (gene 6257) (UniProt P28702); assay: ATG_RXRb_TRANS: Attagene TRANS-FACTORIAL HepG2 Assay for human Retinoid X Receptor beta (RXRb) (AID 2283013)
Method in brief: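 Multiplexed TRANS reporter assay in HepG2; 24 h dosing; reporter mRNA by RT-PCR/CE fluorescence; gain-of-signal relative to DMSO.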

[7] = molecular target: human Thyroid Receptor alpha (THRa1), THRA (gene 7067) (UniProt P10827); assay: ATG_THRa1_TRANS: Attagene TRANS-FACTORIAL HepG2 Assay for human Thyroid Receptor alpha (THRa1) (AID 2283014)
Method in brief: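 HepG2 cells transiently transfected with chimeric NR-Gal4 and GAL4-UAS reporter units, dosed 24 h. Reporter mRNA quantified by RT-PCR, fluorescent labeling, HpaI digestion and capillary electrophoresis; gain-of-signal fit versus DMSO.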

[8] = molecular target: human Vitamin D Receptor (VDR), VDR (gene 7421) (UniProt P11473); assay: ATG_VDR_TRANS: Attagene TRANS-FACTORIAL HepG2 Assay for human Vitamin D Receptor (VDR) (AID 2283022)
Method in brief: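 HepG2 cells were transiently transfected with GAL4-UAS reporter units and a chimeric VDR-Gal4 construct, then dosed for 24 hours. Reporter mRNA was quantified by RT-PCR, fluorescent labeling, HpaI digestion and capillary electrophoresis; gain of signal analysed vs DMSO.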

[9] = molecular target: human CYP1A1, CYP1A1 (gene 1543) (UniProt P04798); assay: NVS_ADME_hCYP1A1: NovaScreen (NVS) CYP450-related Enzyme Activity (ADME) Assay for human CYP1A1 (AID 2283100)
Method in brief: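 Recombinant CYP1A1 with a fluorogenic substrate, cell-free, read 1 h after dosing; acetonitrile as negative control. Single-concentration screen at 10 uM in duplicate, then concentration-response up to 20 uM for chemicals meeting ~30% inhibition threshold.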

[10] = molecular target: Cytochrome P450 3A4 (Homo sapiens) (UniProt P08684); assay: NVS_ADME_hCYP3A4: NovaScreen (NVS) CYP450-related Enzyme Activity (ADME) Assay for human CYP3A4 (AID 2283110)
Method in brief: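 Compounds were first screened in duplicate at 10 uM against recombinant CYP3A4 produced in insect cells, then actives were run in concentration series. Enzyme activity was measured by fluorescence after 0.33 hour, with acetonitrile as baseline.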

[11] = molecular target: human CYP2A6, CYP2A6 (gene 1548) (UniProt P11509); assay: NVS_ADME_hCYP2A6: NovaScreen (NVS) CYP450-related Enzyme Activity (ADME) Assay for human CYP2A6 (AID 2283099)
Method in brief: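 Recombinant human CYP2A6 expressed in insect cells, cell-free; fluorogenic substrate turnover read by fluorescence intensity 0.5 h after dosing. Primary screen 10 uM in duplicate, then concentration-response up to 20 uM; acetonitrile as negative control.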

Measured: AC50

N#Cc1cc(Br)c(O)c(Br)c1
inconclusive: [1] 50 µM | [2] 50 µM | [3] 50 µM | [4] 50 µM

CC(C)(O)c1cnn2c(-c3ccc(F)c(-c4c(F)cccc4C#N)c3)cnc2n1
inactive: [5]
inconclusive: [1] 16.9 µM | [2] 1.02 µM | [3] 16 µM | [4] 1.18 µM | [7] 2.99 µM | [8] 0.0173 µM | [9] 0.329 µM

CO[C@@H]1[C@H](OC(=O)NC(=O)CCl)CC[C@]2(CO2)[C@H]1[C@@]1(C)O[C@@H]1CC=C(C)C
active: [10] 2.38 µM
inactive: [3] | [5] | [6] | [7]
inconclusive: [1] 6.13 µM | [2] 6.13 µM | [4] 6.13 µM

c1cc(OCC2CO2)ccc1Cc1ccc(OCC2CO2)cc1 (stereo not given)
inconclusive: [1] 5.85 µM | [2] 3.26 µM | [3] 59.8 µM
inactive: [4] | [5]

Cc1c([N+](=O)[O-])c(C)c([N+](=O)[O-])c(C(C)(C)C)c1[N+](=O)[O-]
inconclusive: [3] 19.8 µM | [4] 183 µM | [7] 48.2 µM | [8] 100 µM
inactive: [1] | [2]
active: [5] 9.15 µM | [6] 1.12 µM

C=CC(=O)[O][Sn]([CH2]CCC)([CH2]CCC)[CH2]CCC
inconclusive: [1] 0.412 µM | [2] 0.412 µM | [3] 0.302 µM | [4] 0.0817 µM
active: [5] 0.00177 µM | [6] 0.000682 µM
inactive: [8]

COC(=O)C(F)(F)C(F)(F)OC(F)(C(F)(F)F)C(F)(F)OC(F)=C(F)F (stereo not given)
inconclusive: [1] 19.5 µM and 13.6 µM and 4.95 µM | [2] 4.44 µM and 13.3 µM and 5.98 µM | [7] 50 µM and 27.1 µM
inactive: [3] | [4]
active: [6] 31.8 µM and 41.3 µM and 28.2 µM

Nc1ccc(N=Nc2ccccc2)cc1
inconclusive: [3] 0.116 µM | [6] 0.00914 µM | [7] 100 µM
inactive: [1] | [2] | [4] | [8] | [9]

CC(C)COC(=O)c1ccccc1C(=O)OCC(C)C
inconclusive: [1] 66.1 µM | [2] 100 µM | [3] 143 µM | [4] 157 µM | [7] 100 µM
active: [6] 43.6 µM

Oc1c(I)cc(I)cc1I
active: [7] 7.66 µM
inconclusive: [1] 173 µM | [2] 182 µM | [3] 100 µM | [4] 179 µM

O=[N+]([O-])c1cccc2ccccc12
active: [6] 100 µM
inconclusive: [1] 26.9 µM | [2] 100 µM | [3] 164 µM | [4] 6.53 µM

O=C(NC(=O)c1c(F)cccc1F)Nc1ccc(Cl)cc1
inconclusive: [1] 100 µM | [2] 184 µM | [3] 100 µM | [4] 100 µM
inactive: [6] | [7]

Nc1c(Cl)cc([N+](=O)[O-])cc1Cl
inconclusive: [2] 50 µM | [3] 50 µM
active: [11] 2.05 µM
inactive: [1] | [4] | [8]

C(=NC1CCCCC1)=NC1CCCCC1
inconclusive: [1] 100 µM | [2] 100 µM | [3] 61.7 µM | [4] 122 µM | [6] 100 µM

CNC(=O)N(C)c1nnc(C(C)(C)C)s1
inactive: [1] | [4]
inconclusive: [2] 50 µM | [3] 50 µM | [6] 0.0128 µM | [7] 0.173 µM

NC(=O)CCl
inactive: [1] | [2] | [3] | [4] | [7]
